{
  "sequences": {"note": "Sequences of proteins named here, by UniProt entry; tags and fusion partners are left off. A change or cut given only in a name is not applied to a line headed by its entry.", "UniProt Q8NEY1": "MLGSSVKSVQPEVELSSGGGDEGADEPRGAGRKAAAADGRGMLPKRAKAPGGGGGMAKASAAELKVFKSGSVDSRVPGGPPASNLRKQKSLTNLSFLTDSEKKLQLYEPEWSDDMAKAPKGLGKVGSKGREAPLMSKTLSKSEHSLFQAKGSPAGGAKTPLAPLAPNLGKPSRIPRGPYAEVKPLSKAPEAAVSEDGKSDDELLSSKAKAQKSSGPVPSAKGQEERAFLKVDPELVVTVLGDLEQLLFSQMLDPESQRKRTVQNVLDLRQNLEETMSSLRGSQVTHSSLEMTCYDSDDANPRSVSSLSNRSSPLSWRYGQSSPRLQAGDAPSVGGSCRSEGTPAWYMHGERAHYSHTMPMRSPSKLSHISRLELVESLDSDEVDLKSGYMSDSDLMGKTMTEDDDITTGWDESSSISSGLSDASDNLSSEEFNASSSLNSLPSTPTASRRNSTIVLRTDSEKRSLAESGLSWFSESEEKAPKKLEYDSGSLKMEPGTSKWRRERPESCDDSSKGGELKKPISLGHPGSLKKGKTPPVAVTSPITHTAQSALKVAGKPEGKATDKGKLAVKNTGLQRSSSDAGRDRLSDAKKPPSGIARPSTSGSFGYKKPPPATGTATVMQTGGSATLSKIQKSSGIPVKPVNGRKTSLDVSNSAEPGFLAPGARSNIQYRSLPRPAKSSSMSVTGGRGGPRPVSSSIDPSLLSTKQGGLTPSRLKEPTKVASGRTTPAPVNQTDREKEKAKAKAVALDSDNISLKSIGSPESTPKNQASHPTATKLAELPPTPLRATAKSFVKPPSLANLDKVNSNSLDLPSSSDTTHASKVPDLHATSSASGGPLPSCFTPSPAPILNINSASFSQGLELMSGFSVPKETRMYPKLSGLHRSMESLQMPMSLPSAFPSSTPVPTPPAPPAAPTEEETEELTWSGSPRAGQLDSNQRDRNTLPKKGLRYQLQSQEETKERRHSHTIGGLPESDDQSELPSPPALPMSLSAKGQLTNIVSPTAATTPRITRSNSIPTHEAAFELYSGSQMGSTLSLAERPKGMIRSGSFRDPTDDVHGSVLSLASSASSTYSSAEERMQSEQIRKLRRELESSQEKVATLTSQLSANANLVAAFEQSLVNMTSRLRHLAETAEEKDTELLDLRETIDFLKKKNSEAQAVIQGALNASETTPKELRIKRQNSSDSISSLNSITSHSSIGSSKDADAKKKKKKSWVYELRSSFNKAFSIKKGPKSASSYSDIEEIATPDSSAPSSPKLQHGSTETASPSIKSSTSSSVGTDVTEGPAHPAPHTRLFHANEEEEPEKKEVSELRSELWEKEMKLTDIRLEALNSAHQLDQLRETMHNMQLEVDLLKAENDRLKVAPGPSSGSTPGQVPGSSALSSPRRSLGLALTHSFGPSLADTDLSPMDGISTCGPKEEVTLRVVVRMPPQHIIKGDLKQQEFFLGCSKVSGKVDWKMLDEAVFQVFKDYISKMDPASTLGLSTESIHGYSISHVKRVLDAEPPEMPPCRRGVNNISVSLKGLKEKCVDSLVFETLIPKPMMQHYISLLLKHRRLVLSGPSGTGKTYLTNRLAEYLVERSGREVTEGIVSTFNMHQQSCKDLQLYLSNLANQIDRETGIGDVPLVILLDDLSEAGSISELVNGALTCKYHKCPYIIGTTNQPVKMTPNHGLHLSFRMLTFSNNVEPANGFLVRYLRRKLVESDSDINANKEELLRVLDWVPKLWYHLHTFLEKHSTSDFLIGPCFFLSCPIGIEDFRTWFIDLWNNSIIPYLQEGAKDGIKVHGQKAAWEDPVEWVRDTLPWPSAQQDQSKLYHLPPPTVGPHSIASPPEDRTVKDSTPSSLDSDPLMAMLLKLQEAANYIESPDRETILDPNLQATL"},
  "source": "paper PMC5996148",
  "test_in_all_cases": "protein microarray (ProtoArray v5.0), streptavidin-Alexa Fluor 647",
  "conditions_in_all_cases": "3'-biotin; 20 mM Tris (pH 7.5), 5 mM MgCl2, 100 mM KCl, 0.1% Tween-20, A/T-rich and random oligonucleotide blockers; temperature not stated; high values mean tight binding",
  "key": {"[1]": {"test_system": "NADSYN1 (human)"}, "[2]": {"test_system": "NAGK (human)"}, "[3]": {"test_system": "NAP1L2 (human)"}, "[4]": {"test_system": "NAP1L5 (human)"}, "[5]": {"test_system": "NAPG (human)"}, "[6]": {"test_system": "NAPRT1 (human)"}, "[7]": {"test_system": "NARS2 (human)"}, "[8]": {"test_system": "NASP (human)"}, "[9]": {"target": "NAV1 (UniProt Q8NEY1)"}, "[10]": {"test_system": "NBPF1 (human)"}, "[11]": {"test_system": "NBPF22P (human)"}, "[12]": {"test_system": "NCBP1 (human)"}, "[13]": {"test_system": "NCF4 (human)"}, "[14]": {"test_system": "NCLN (human)"}, "[15]": {"test_system": "NCOA4 (human)"}, "[16]": {"test_system": "NDFIP1 (human)"}, "[17]": {"test_system": "NDFIP2 (human)"}, "[18]": {"test_system": "NDRG2 (human)"}, "[19]": {"test_system": "NDRG4 (human)"}, "[20]": {"test_system": "NDUFA1 (human)"}},
  "note": "Several values for one entry are separate records, joined by “and”; a condition that tells them apart may be missing. Equal values may be shown once. The list shows a part of the results. For some assays here: Construct or isoform of the protein are uncertain.",
  "data": [
    {"sequence": "GGGAGGCTGAGGCAGG [G4-1 biotinylated (PQS2)]", "values": [
      {"measurement": "binding signal", "setting": "[1]", "value": -0.287, "unit": "z-score"},
      {"measurement": "binding signal", "setting": "[2]", "value": -0.338, "unit": "z-score"},
      {"measurement": "binding signal", "setting": "[3]", "value": -0.326, "unit": "z-score"},
      {"measurement": "binding signal", "setting": "[4]", "value": -0.291, "unit": "z-score"},
      {"measurement": "binding signal", "setting": "[5]", "value": -0.341, "unit": "z-score"},
      {"measurement": "binding signal", "setting": "[6]", "value": -0.354, "unit": "z-score"},
      {"measurement": "binding signal", "setting": "[7]", "value": -0.27, "unit": "z-score"},
      {"measurement": "binding signal", "setting": "[8]", "value": -0.347, "unit": "z-score"},
      {"measurement": "binding signal", "setting": "[9]", "value": -0.352, "unit": "z-score"},
      {"measurement": "binding signal", "setting": "[10]", "value": -0.354, "unit": "z-score"},
      {"measurement": "binding signal", "setting": "[11]", "value": -0.36, "unit": "z-score"},
      {"measurement": "binding signal", "setting": "[12]", "value": -0.335, "unit": "z-score"},
      {"measurement": "binding signal", "setting": "[13]", "value": -0.296, "unit": "z-score"},
      {"measurement": "binding signal", "setting": "[14]", "value": -0.33, "unit": "z-score"},
      {"measurement": "binding signal", "setting": "[15]", "value": "-0.346 z-score and -0.314 z-score"},
      {"measurement": "binding signal", "setting": "[16]", "value": -0.234, "unit": "z-score"},
      {"measurement": "binding signal", "setting": "[17]", "value": -0.31, "unit": "z-score"},
      {"measurement": "binding signal", "setting": "[18]", "value": -0.352, "unit": "z-score"},
      {"measurement": "binding signal", "setting": "[19]", "value": "-0.365 z-score and -0.356 z-score"},
      {"measurement": "binding signal", "setting": "[20]", "value": -0.301, "unit": "z-score"}
    ]}
  ]
}
